Test results from PubChem BioAssay AID624297 (National Center for Advancing Translational Sciences (NCATS), 2012).
In all, about 340,000 compounds went through this assay and about 6,200 (1.8%) were called active. The inconclusive results got no clear call from the source; some entries with a clear call stand among them for comparison. Calls follow the shape of the dose curve; as a rule, active = well fitted activation curve with a large enough effect; inconclusive = small, poorly fitted or top-dose-only effect; inactive = no such curve, though single readings can be large or run the other way. A potency beside an inconclusive call is a rough fit, not a confirmed value.

Test: A quantitative high throughput screen for small molecules that induce DNA re-replication in SW480 colon adenocarcinoma cells. Also: nearly all actives have a fitted effect of over 55% in size. As to re-replication activation: % of control where 0% means no effect.
Settings: Hoechst DNA content imaging, 48 h; re-replication activation: at 46.1 µM (top of the series)
Method in brief: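 Image-based DNA-content assay: after two days of treatment, nuclei were labelled with the DNA dye Hoechst and imaged, and hits were compounds raising the count of nuclei showing high fluorescence intensity.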
Potency is read from the fitted curve at half-maximal effect.

| Compound | Potency | re-replication activation |
| --- | --- | --- |
| Oc1ccc(/C=N/NP(=S)(c2ccccc2)c2ccccc2)cc1 | inactive |  |
| Cc1ccc(C(c2nnnn2Cc2ccccc2)N2CC=C(c3ccc(F)cc3)CC2)cc1 (centres undefined) | inactive |  |
| COC(=O)C1=C(c2ccc(F)cc2F)C[C@@H]2CC[C@H]1N2C(=O)NCCCOC(C)C | inactive |  |
| CCCC(C)C1(CC)C(=O)NC(=O)NC1=O (centres undefined) | inactive |  |
| COc1cc2c(cc1OC)-c1c3c(cc4c1[C@@H](C2)N(C)CC4)OCO3 | inconclusive: 20.6 µM [activator, single point] |  |
| CCn1c(NN=O)nc2ccccc21 | inconclusive: 0.291 µM [activator, full curve, poor fit] |  |
| CC(=O)OC1C(=O)OCC23CCC4(C)OC4C2OC2CC(OC(=O)C=CC=CC(=O)OCCC1C)C3(C)C21CO1 (centres undefined) | inconclusive: 1.03 µM [activator, partial curve, poor fit] |  |
| O=c1[nH]c(O)c(N=Nc2ccc([N+](=O)[O-])cc2)c(=O)[nH]1 | inconclusive: 5.17 µM [activator, full curve, poor fit] |  |
| C[C@H]1[C@@H](OS(=O)(=O)O)C[C@@H]2C[C@H]([C@@H](O)c3cc(=O)[nH]c(=O)[nH]3)NC3=NC[C@H]1N32 | inconclusive: 29.1 µM [activator, partial curve, poor fit] |  |
| O=C1CN=C(c2ccc[nH]2)c2cc(Cl)ccc2N1 | inconclusive: 29.1 µM [activator, single point] |  |
| O=C(CNC(=O)c1ccccc1)NCC(=O)OCC(=O)c1ccc([N+](=O)[O-])cc1 | inactive |  |
| CC1CCCC(C2(O)C(=O)Nc3ccccc32)C1=O (centres undefined) | inconclusive: 5.17 µM [activator, single point] |  |
| CCCCCSc1cc(OC)c(CCN)cc1OC | active: 16.4 µM |  |
| C=CCN1CC[C@]23c4c5ccc(O)c4O[C@H]2C(=O)CC[C@@]3(O)[C@H]1C5 | inconclusive: 0.259 µM [activator, single point] |  |
| O=C(N/N=C/c1ccccc1OC(=O)N1CCOCC1)c1cccs1 | inconclusive: 29.1 µM [activator, single point] |  |
| CCOP(=S)(OCC)Oc1cc(C)oc(=O)c1 | inconclusive: 16.4 µM [activator, single point] |  |
| Cc1ccsc1/C=C1\C(=O)NC(=S)N(C)C1=O | inconclusive: 16.4 µM [activator, partial curve, poor fit] |  |
| O=C1NC(=S)NC(=O)C1c1ccccc1 | inactive |  |
| CCCCCCn1c(=O)c(C(=O)Nc2ncccc2O)c(O)c2ccccc21 | inactive |  |
| COC(=O)C1=C(c2ccc(F)cc2OCc2ccccc2)C[C@@H]2CC[C@H]1N2C(=O)N1CCCCC1 | inactive |  |
| CN(CC=CCN(C)P(=S)(N1CC1)N1CC1)P(=S)(N1CC1)N1CC1 | inconclusive: 14.6 µM [activator, partial curve] |  |
| Cc1cc(N(CCCl)CCCl)ccc1/C=N/NC(=O)c1ccco1 | inconclusive: 20 µM [activator, single point] |  |
| C=CC[C@@H](CC/C=C/C=C/CC/C=C\[C@@H]1CSC([C@@H]2C[C@@H]2C)=N1)OC | active: 1.16 µM |  |

Given field by field: part of the list above
C=CCN1CC[C@]23c4c5ccc(O)c4O[C@H]2C(=O)CC[C@@]3(O)[C@H]1C5
  Potency: inconclusive: 0.259 µM [activator, single point]
O=C(N/N=C/c1ccccc1OC(=O)N1CCOCC1)c1cccs1
  Potency: inconclusive: 29.1 µM [activator, single point]
CCOP(=S)(OCC)Oc1cc(C)oc(=O)c1
  Potency: inconclusive: 16.4 µM [activator, single point]
Cc1ccsc1/C=C1\C(=O)NC(=S)N(C)C1=O
  Potency: inconclusive: 16.4 µM [activator, partial curve, poor fit]

Continued:

| Compound | Potency | re-replication activation |
| --- | --- | --- |
| CCOC(=O)c1cc(CC)sc1/N=C/c1c(O)[nH]c(=S)[nH]c1=O | inactive |  |
| N[C@@H]1C[C@H]1c1ccccc1 | inconclusive: 0.0046 µM [activator, full curve, poor fit] |  |
| C[C@]12CCC3C(CC[C@H]4C[C@@H](O)CC[C@]34C)C1CC[C@@H]2OC(=O)[C@H](N)CCCCN (some centres undefined) | inconclusive: 20.6 µM [activator, single point] |  |
| CCOc1ccccc1-n1c(O)c(C=Nc2ccc(N(CC)CC)cc2)c(=O)[nH]c1=O | inconclusive: 25.9 µM [activator, single point] |  |
| CCCCCSc1cc(OC)c(CCN(C)C)cc1OC | inconclusive: 29.1 µM [activator, single point] |  |
| COC(=O)C1=Nc2ccccc2/C1=C\c1c(O)n(-c2cc(OC)ccc2OC)c(=O)[nH]c1=O | inactive |  |
| Cc1ccc(S(=O)(=O)N2CC2(C)CCl)cc1 (centres undefined) | inconclusive: 18.4 µM [activator, single point] |  |
| O=C(COC(=O)c1cccc(O)c1)Nc1ccc(Cl)cc1C(=O)c1ccccc1 | inactive |  |
| O=C(c1ccc(Cl)cc1)N1CCC2(CC1)OCCO2 | inconclusive: 6.51 µM [activator, single point] |  |
| N=C(N)c1c(O)n(C2CCCCC2)c(=O)n(C2CCCCC2)c1=O | inconclusive: 25.9 µM [activator, single point] |  |
| O=c1c2ccccc2nc(-c2ccco2)n1-c1nccs1 | inconclusive: 20.6 µM [activator, partial curve, poor fit] |  |
| COC(=O)C1=C(c2ccc(OC(F)(F)F)cc2)C[C@@H]2CC[C@H]1N2C(=O)NC1CCCCC1 | inconclusive: 18.4 µM [activator, single point] |  |
| O=[N+]([O-])c1ccc(C(c2ccc([N+](=O)[O-])cc2)c2ccc([N+](=O)[O-])cc2)cc1 | inconclusive: 25.9 µM [activator, single point] |  |
| COc1ccc(S(=O)(=O)Nc2cc([N+](=O)[O-])ccc2OC)cc1 | inconclusive: 20.6 µM [activator, single point] |  |
| CC(=O)Nc1nnc(S(N)(=O)=O)s1 | inconclusive: 0.146 µM [activator, single point] |  |
| COc1cc2c(cc1O)C[C@H]1NCCc3cc4c(c-2c31)OCO4 | inconclusive: 18.4 µM [activator, partial curve, poor fit] |  |
| CN(c1ccccc1)P(=O)(N1CC1)N1CC1 | inconclusive: 25.9 µM [activator, single point] |  |
| O=[N+]([O-])/C(Cl)=C1\NCCN1Cc1ccc(Cl)nc1 | inactive |  |
| O=P(NCc1ccccc1)(Oc1ccccc1)Oc1ccccc1 | inconclusive: 16.4 µM [activator, single point] |  |
| c1cncc(CNCCc2ccc3c(c2)OCO3)c1 | inactive |  |
| CC(=O)OC1(c2ccccc2)CCN(C)CC1(C)C (centres undefined) | inactive |  |
| Cc1cccc(-n2c(O)c(/C=C3/C(c4ccccc4)=Nc4ccccc43)c(=O)[nH]c2=O)c1 | active: 3.66 µM |  |
| CCOP(=O)(OCC)c1nc(-c2cccc3ccccc23)oc1NCc1ccccc1 | inconclusive: 16.4 µM [activator, single point] |  |

| Compound | Potency | re-replication activation |
| --- | --- | --- |
| Cn1c(O)c(C=NCCN2CCNCC2)c(=O)[nH]c1=O |  | inactive: -2.02% [at 9.22 µM] |
| O=[N+]([O-])C(Br)(CO)CO | inconclusive: 16.8 µM [activator, full curve] |  |
| O=C(OCC(=O)c1ccc([N+](=O)[O-])cc1)/C(=C/c1ccc(Cl)cc1)NC(=O)c1ccccc1 | inconclusive: 29.1 µM [activator, single point] |  |
| O=c1[nH]c(O)c(/C=C2\C=NN=C2c2ccccc2)c(=O)[nH]1 | inconclusive: 0.126 µM [activator, full curve, poor fit] |  |
| CC(=O)c1c(C)n(Cc2ccccc2)c2ccc(O)cc12 | inconclusive: 32.6 µM [activator, partial curve, poor fit] |  |
| CN(C)CC1CSCCC1(O)c1ccc(C(F)(F)F)cc1 (centres undefined) | inactive |  |
| CC12C=CC(=O)C=C1CCC1C2C(O)CC2(C)C1CCC2(C)O (centres undefined) | inactive |  |
| CCOC(=O)C(O)(c1cn(C)c2ccccc12)C(F)(F)F (centres undefined) | inconclusive: 0.13 µM [activator, full curve, poor fit] |  |
| CC12CCC3C(CCC4(O)CC(O)CCC34C=NO)C1(O)CCC2C1=COC(=O)C1 (centres undefined) | active: 1.64 µM |  |
| Cc1ccc2c(c1)N(N=O)CCC2 | inactive |  |
| CCOP(=O)(CCP(=O)(OCC)OCC)OCC.C[CH2][Sn]([Cl])([Cl])[CH2]C | inconclusive: 1.46 µM [activator, partial curve] |  |
| CC1(C)Cc2c(c(N3CCOCC3)nc3sc4c(NCc5ccccc5)nnnc4c23)CS1 | inconclusive: 6.51 µM [activator, partial curve, poor fit] |  |
| CCCCCSc1cc(O)c(C(CNC)C(C)C)cc1OC (centres undefined) | inconclusive: 29.1 µM [activator, single point] |  |
| CCOC(=O)C1(c2ccccc2)CCN(CCC(C#N)(c2ccccc2)c2ccccc2)CC1 | active: 2.82 µM |  |
| O=S(=O)(c1ccc(F)cc1)N1CN2CCN(C2)C1 | inactive |  |
| CCCOP(=O)(OCCC)C(Nc1cccc(C(F)(F)F)c1)c1ccc(C)cc1 (centres undefined) | inconclusive: 32.6 µM [activator, partial curve, poor fit] |  |
| CN1C(=O)C(=Cc2ccccc2Oc2ccc(Cl)c(F)c2)C(=O)N(C)C1=O | inconclusive: 29.1 µM [activator, single point] |  |
| CN(C)C(=O)Oc1ccc(-c2cn3cc(C(F)(F)F)ccc3n2)cc1 | inconclusive: 0.231 µM [activator, full curve, poor fit] |  |
| Cc1nc2c(-c3ccccc3)c(C)nn2c(C)c1CCC(=O)N1CCC2(CC1)OCCO2 | inactive |  |
| COCCCn1c(=O)/c(=C\c2ccccc2OC(F)F)s/c1=C(/C#N)C(=O)NCCOC | inconclusive: 20.6 µM [activator, single point] |  |
| O=P(OC1CCCCC1)(OC1CCCCC1)C(O)c1ccc(Cl)cc1Cl (centres undefined) | inconclusive: 32.6 µM [activator, partial curve, poor fit] |  |
| OC1/C(=C/c2ccc(C(F)(F)F)cc2)N2CCC1CC2 (centres undefined) | inconclusive: 0.0259 µM [activator, full curve, poor fit] |  |
| CC(=O)N1Cc2cnnn2-c2ccccc2C1(C)C#N (centres undefined) | inconclusive: 0.0411 µM [activator, full curve] |  |

2 of these compounds, set out differently:
Compound	Potency	re-replication activation
C[C@]12CCC3C(CC[C@H]4C[C@@H](O)CC[C@]34C)C1CC[C@@H]2OC(=O)[C@H](N)CCCCN (some centres undefined)	inconclusive: 20.6 µM [activator, single point]	
O=c1[nH]c(O)c(/C=C2\C=NN=C2c2ccccc2)c(=O)[nH]1	inconclusive: 0.126 µM [activator, full curve, poor fit]	
